Taken from: PubChem BioAssay AID1671195 (Yale University, 2021)
Assay: 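Knockdowns that increase or decrease uptake of fluorescent LDL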 (primary screen). Cells: human Huh7 hepatoma cells. Reagent: siRNA pool against human genes, 18 nM. Time to read-out: about 2 to 2.5 days of knockdown, then 8 h LDL uptake. Conditions: DiI-labelled LDL at 30 µg/ml for 8 h, in lipoprotein-deficient serum medium. Read-out: 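Per-cell DiI-LDL intensity by automated imaging; well means scaled to the plate median and given as a robust z-score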. Reading the numbers: robust z-score: higher = more LDL uptake after knockdown. Rule for the call: 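a gene counts as active if at least two replicate z-scores exceed ±2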.
In all, the deposit lists about 22,000 reagents; shown is a random part of them. In the full data, about 1,510 (6.9%) were called active. 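Active includes knockdowns raising or lowering LDL uptake; positive z-scores mean more uptake, negative mean less.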 The numbers tell different reagents against one gene apart.

{"gene": "SEZ6L (seizure related 6 homolog like)", "reagent": 1, "robust z-score, replicate 1": -1.47, "robust z-score, replicate 2": -0.972, "robust z-score, replicate 3": -1.92, "call": "inactive"}
{"gene": "TRAT1 (T cell receptor associated transmembrane adaptor 1)", "reagent": 1, "robust z-score, replicate 1": -0.618, "robust z-score, replicate 2": -0.328, "robust z-score, replicate 3": -0.673, "call": "inactive"}
{"gene": "TPRG1 (tumor protein p63 regulated 1)", "reagent": 1, "robust z-score, replicate 1": -0.62, "robust z-score, replicate 2": 0.0763, "robust z-score, replicate 3": -0.193, "call": "inactive"}
{"gene": "LOC440403 (retired record)", "reagent": 1, "robust z-score, replicate 1": -0.144, "robust z-score, replicate 2": 0.0369, "robust z-score, replicate 3": -0.381, "call": "inactive"}
{"gene": "CNOT7 (CCR4-NOT transcription complex subunit 7)", "reagent": 1, "robust z-score, replicate 1": -2.7, "robust z-score, replicate 2": -2.28, "robust z-score, replicate 3": -2.63, "call": "active"}
{"gene": "MFSD6 (major facilitator superfamily domain containing 6)", "reagent": 1, "robust z-score, replicate 1": 1.45, "robust z-score, replicate 2": 1.08, "robust z-score, replicate 3": -1.59, "call": "inactive"}
{"gene": "EIF4B (eukaryotic translation initiation factor 4B)", "reagent": 1, "robust z-score, replicate 1": -0.655, "robust z-score, replicate 2": -0.759, "robust z-score, replicate 3": 0.00204, "call": "inactive"}
{"gene": "LOC339693 (retired record)", "reagent": 1, "robust z-score, replicate 1": -0.294, "robust z-score, replicate 2": -0.438, "robust z-score, replicate 3": -0.102, "call": "inactive"}
{"gene": "NXPE2 (neurexophilin and PC-esterase domain family member 2)", "reagent": 1, "robust z-score, replicate 1": -0.324, "robust z-score, replicate 2": -0.23, "robust z-score, replicate 3": -1.06, "call": "inactive"}
{"gene": "METTL2B (methyltransferase 2B, tRNA N3-cytidine)", "reagent": 1, "robust z-score, replicate 1": -0.156, "robust z-score, replicate 2": -0.203, "robust z-score, replicate 3": -0.143, "call": "inactive"}
{"gene": "SLITRK1 (SLIT and NTRK like family member 1)", "reagent": 1, "robust z-score, replicate 1": -0.285, "robust z-score, replicate 2": -1.73, "robust z-score, replicate 3": -0.783, "call": "inactive"}
{"gene": "RPL13 (ribosomal protein L13)", "reagent": 1, "robust z-score, replicate 1": -1.67, "robust z-score, replicate 2": -1.91, "robust z-score, replicate 3": -1.36, "call": "inactive"}
{"gene": "TAL1", "reagent": 1, "robust z-score, replicate 1": -0.914, "robust z-score, replicate 2": 1.07, "robust z-score, replicate 3": -0.37, "call": "inactive"}
{"gene": "ZNFX1 (zinc finger NFX1-type containing 1)", "reagent": 1, "robust z-score, replicate 1": 0.146, "robust z-score, replicate 2": 0.494, "robust z-score, replicate 3": -0.597, "call": "inactive"}
{"gene": "FCER1A (Fc epsilon receptor Ia)", "reagent": 1, "robust z-score, replicate 1": -1.48, "robust z-score, replicate 2": -1.28, "robust z-score, replicate 3": -1.21, "call": "inactive"}
{"gene": "LOC440895 (two pore channel 3 pseudogene)", "reagent": 1, "robust z-score, replicate 1": -1.88, "robust z-score, replicate 2": -2.05, "robust z-score, replicate 3": -2.03, "call": "active"}
{"gene": "LOC440895 (two pore channel 3 pseudogene)", "reagent": 2, "robust z-score, replicate 1": -1.69, "robust z-score, replicate 2": -0.722, "robust z-score, replicate 3": -0.814, "call": "inactive"}
{"gene": "LOC401048 (retired record)", "reagent": 1, "robust z-score, replicate 1": 2.08, "robust z-score, replicate 2": 1.4, "robust z-score, replicate 3": 2.43, "call": "active"}
{"gene": "LINC02694 (long independently transcribed non-coding RNA 2694)", "reagent": 1, "robust z-score, replicate 1": -0.743, "robust z-score, replicate 2": 0.381, "robust z-score, replicate 3": 2.17, "call": "inactive"}
{"gene": "XRCC3 (X-ray repair cross complementing 3)", "reagent": 1, "robust z-score, replicate 1": 2.22, "robust z-score, replicate 2": 2.32, "robust z-score, replicate 3": 2.5, "call": "active"}
{"gene": "HSPA5 (heat shock protein family A (Hsp70) member 5)", "reagent": 1, "robust z-score, replicate 1": -0.556, "robust z-score, replicate 2": -0.456, "robust z-score, replicate 3": -0.167, "call": "inactive"}
{"gene": "HSPD1 (heat shock protein family D (Hsp60) member 1)", "reagent": 1, "robust z-score, replicate 1": -0.0808, "robust z-score, replicate 2": 0.762, "robust z-score, replicate 3": -0.207, "call": "inactive"}
{"gene": "BRD10 (bromodomain containing 10)", "reagent": 1, "robust z-score, replicate 1": -1.06, "robust z-score, replicate 2": -1.07, "robust z-score, replicate 3": -0.804, "call": "inactive"}
{"gene": "KRABD5 (KRAB domain containing 5)", "reagent": 1, "robust z-score, replicate 1": -0.0178, "robust z-score, replicate 2": 0.384, "robust z-score, replicate 3": 0.261, "call": "inactive"}
{"gene": "DCLRE1B (DNA cross-link repair 1B)", "reagent": 1, "robust z-score, replicate 1": -1.19, "robust z-score, replicate 2": -0.934, "robust z-score, replicate 3": -1.01, "call": "inactive"}
{"gene": "RPL18A (ribosomal protein L18a)", "reagent": 1, "robust z-score, replicate 1": -1.32, "robust z-score, replicate 2": -1.59, "robust z-score, replicate 3": -1.03, "call": "inactive"}
{"gene": "OR6N1 (olfactory receptor family 6 subfamily N member 1)", "reagent": 1, "robust z-score, replicate 1": 0.341, "robust z-score, replicate 2": 0.236, "robust z-score, replicate 3": 0.494, "call": "inactive"}
{"gene": "SFPQ (splicing factor proline and glutamine rich)", "reagent": 1, "robust z-score, replicate 1": -1.52, "robust z-score, replicate 2": -1.61, "robust z-score, replicate 3": -1.07, "call": "inactive"}
{"gene": "MYO5A (myosin VA)", "reagent": 1, "robust z-score, replicate 1": -0.618, "robust z-score, replicate 2": -0.643, "robust z-score, replicate 3": -0.33, "call": "inactive"}
{"gene": "DDI1 (DDI proteasomal shuttling factor 1)", "reagent": 1, "robust z-score, replicate 1": 0.317, "robust z-score, replicate 2": 0.0674, "robust z-score, replicate 3": -0.106, "call": "inactive"}

Entries listed so far with an active call:
{"gene": "CNOT7 (CCR4-NOT transcription complex subunit 7)", "reagent": 1, "robust z-score, replicate 1": -2.7, "robust z-score, replicate 2": -2.28, "robust z-score, replicate 3": -2.63, "call": "active"}
{"gene": "LOC440895 (two pore channel 3 pseudogene)", "reagent": 1, "robust z-score, replicate 1": -1.88, "robust z-score, replicate 2": -2.05, "robust z-score, replicate 3": -2.03, "call": "active"}
{"gene": "LOC401048 (retired record)", "reagent": 1, "robust z-score, replicate 1": 2.08, "robust z-score, replicate 2": 1.4, "robust z-score, replicate 3": 2.43, "call": "active"}
{"gene": "XRCC3 (X-ray repair cross complementing 3)", "reagent": 1, "robust z-score, replicate 1": 2.22, "robust z-score, replicate 2": 2.32, "robust z-score, replicate 3": 2.5, "call": "active"}
